## Small-molecule microarray binding calls

Source: the ROBIN nucleic acid binder screens (doi:10.1002/anie.202211358).

Targets, with sequences 5′ to 3′:
SAM-II: SAM-II riboswitch RNA pseudoknot, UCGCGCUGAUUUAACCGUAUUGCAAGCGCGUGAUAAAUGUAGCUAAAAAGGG. About 200 hits among about 21,000 compounds.
PreQ1: PreQ1 riboswitch RNA pseudoknot, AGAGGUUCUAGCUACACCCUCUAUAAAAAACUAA. From B. subtilis. About 170 hits among about 24,000 compounds.
TPP: TPP riboswitch RNA three-way junction, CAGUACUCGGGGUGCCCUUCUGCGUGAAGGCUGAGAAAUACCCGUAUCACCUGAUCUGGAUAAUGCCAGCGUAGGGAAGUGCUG. About 160 hits among about 24,000 compounds.

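The test is a small-molecule microarray: each compound is printed twice on a reactive slide, and binding shows as fluorescence of the labelled oligonucleotide after washing. The data file lists only calls. An earlier report of the laboratory on the PreQ1, TPP and SAM-II riboswitches (doi:10.1038/s41467-019-09493-3) used 1 µM RNA for 2 h and required a mean Z-score above 3 (spot signal-to-noise against the whole library), a score well above that on a control array, and duplicate spots agreeing (coefficient of variation under 100); it then also set aside compounds that hit other targets, which this list keeps. The cut-offs behind this list may differ. A missing hit is not proof of no binding, and a hit is not a measured affinity.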 “hit” means called a hit, “no hit” means screened and not called a hit. This is an unselected part of the compounds tested. A target missing from an entry has no call listed here.

{"smiles": "CN(C)c1cccc(NC(=O)N2C[C@@H](CO)[C@H](CO)C2)c1", "SAM-II": "no hit", "PreQ1": "no hit", "TPP": "no hit"}
{"smiles": "CN(CC(=O)O)Cc1oc(CO)cc(=O)c1O", "SAM-II": "no hit", "PreQ1": "no hit", "TPP": "no hit"}
{"smiles": "CCOCCCNc1nc2ccc(C(=O)c3ccccc3)cc2n2cnnc12", "PreQ1": "no hit", "TPP": "no hit"}
{"smiles": "NC(=O)c1ccc(-c2nc(-c3ccc4c(c3)OCCO4)c(-c3ccccn3)[nH]2)cc1", "SAM-II": "no hit", "PreQ1": "no hit", "TPP": "no hit"}
{"smiles": "O=C(O)c1cccc(Nc2c(-c3ccccc3O)nc3cnccn23)c1", "PreQ1": "no hit", "TPP": "no hit"}
{"smiles": "Cn1c(=O)c2[nH]c(SCc3ccccn3)nc2n(C)c1=S", "SAM-II": "no hit", "PreQ1": "no hit", "TPP": "no hit"}
{"smiles": "CCc1ccc(-n2nnc(S(=O)(=O)c3ccc(CC)cc3)c2N)cc1", "SAM-II": "no hit", "PreQ1": "no hit", "TPP": "no hit"}
{"smiles": "OCC#Cc1cncnc1", "PreQ1": "no hit", "TPP": "no hit"}
{"smiles": "O=C(c1nc(-c2ccccc2)n(-c2cccc(Cl)c2)n1)N1CCN(CCO)CC1", "PreQ1": "no hit", "TPP": "no hit"}
{"smiles": "COc1ccccc1-n1cnc2cc(NCc3ccco3)ccc21", "SAM-II": "no hit", "PreQ1": "no hit", "TPP": "no hit"}
{"smiles": "CCCOc1ccccc1CCNC(=O)C1(C)CCNCC1", "SAM-II": "no hit", "PreQ1": "no hit", "TPP": "no hit"}
{"smiles": "O=S1(=O)C[C@H](NCCc2ccccc2F)[C@@H](S(=O)(=O)c2ccccc2)C1", "PreQ1": "no hit", "TPP": "no hit"}
{"smiles": "Cc1cc(N2CCCC2=O)cc(C)c1N", "SAM-II": "no hit", "PreQ1": "no hit", "TPP": "no hit"}
{"smiles": "Cc1cc(C)c2c(N)c(C(=O)Nc3cccc(C(F)(F)F)c3)sc2n1", "SAM-II": "no hit", "PreQ1": "no hit", "TPP": "no hit"}
{"smiles": "CC(C)(C)c1ccc(OCCn2c(=N)n(CCO)c3ccccc32)cc1", "SAM-II": "no hit", "PreQ1": "no hit", "TPP": "no hit"}
{"smiles": "Cc1cc(C=NNC(N)=O)c(C)c(CO)c1", "SAM-II": "no hit", "PreQ1": "no hit", "TPP": "no hit"}
{"smiles": "Nc1nonc1C(=O)N1CCN(C(=O)c2cccc(F)c2)CC1", "PreQ1": "no hit", "TPP": "no hit"}
{"smiles": "CN(Cc1ncc[nH]1)[C@H]1CN(C(=O)c2cc(-c3ccsc3)n[nH]2)C[C@@H]1O", "SAM-II": "no hit", "PreQ1": "no hit", "TPP": "no hit"}
{"smiles": "CC1=C(c2ccc(C)c(C)c2)S(=O)(=O)N=C1Nc1c(C)cccc1C", "PreQ1": "no hit", "TPP": "no hit"}
{"smiles": "Cc1nc2ncnn2c(C)c1CCC(=O)N1C[C@H](N)C[C@H]1C(=O)NC(C)C", "SAM-II": "no hit", "PreQ1": "no hit", "TPP": "no hit"}
{"smiles": "O=S1(=O)C[C@H](NCCCc2ccccc2)[C@@H](S(=O)(=O)c2ccc(Cl)cc2)C1", "PreQ1": "no hit", "TPP": "no hit"}
{"smiles": "Cc1ccc2[nH]c(N)nc2n1", "SAM-II": "no hit", "PreQ1": "no hit", "TPP": "no hit"}

The first 2 entries again:

{"smiles": "CN(C)c1cccc(NC(=O)N2C[C@@H](CO)[C@H](CO)C2)c1", "SAM-II": "no hit", "PreQ1": "no hit", "TPP": "no hit"}
{"smiles": "CN(CC(=O)O)Cc1oc(CO)cc(=O)c1O", "SAM-II": "no hit", "PreQ1": "no hit", "TPP": "no hit"}